Assay results as given in the supplement of paper PMC6411743.
± gives the standard deviation of the averaged measurements. This is a selection; strong and weak results do not stand in their true shares.

Protein sequences, listed by entry. Tags and fused reporters are not part of them. Lines headed by an entry give the natural chain unless they say otherwise; changes in a name come on top.
UniProt Q8TCT7: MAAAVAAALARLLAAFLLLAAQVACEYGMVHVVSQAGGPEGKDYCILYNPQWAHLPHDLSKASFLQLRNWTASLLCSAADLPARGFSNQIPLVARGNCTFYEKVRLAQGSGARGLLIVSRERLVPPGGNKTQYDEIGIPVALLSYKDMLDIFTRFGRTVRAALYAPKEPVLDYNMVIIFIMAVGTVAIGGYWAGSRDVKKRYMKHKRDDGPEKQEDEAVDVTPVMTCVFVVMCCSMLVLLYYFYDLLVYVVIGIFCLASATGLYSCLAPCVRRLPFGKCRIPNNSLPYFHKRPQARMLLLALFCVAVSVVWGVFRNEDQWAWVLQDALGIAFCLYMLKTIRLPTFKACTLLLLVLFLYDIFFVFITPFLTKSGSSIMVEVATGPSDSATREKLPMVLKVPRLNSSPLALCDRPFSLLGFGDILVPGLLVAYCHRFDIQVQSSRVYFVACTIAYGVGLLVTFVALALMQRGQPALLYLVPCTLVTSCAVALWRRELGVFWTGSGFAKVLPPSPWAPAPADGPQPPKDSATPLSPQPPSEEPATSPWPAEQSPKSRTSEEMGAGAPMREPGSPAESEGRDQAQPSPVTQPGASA
UniProt Q92784, whole entry: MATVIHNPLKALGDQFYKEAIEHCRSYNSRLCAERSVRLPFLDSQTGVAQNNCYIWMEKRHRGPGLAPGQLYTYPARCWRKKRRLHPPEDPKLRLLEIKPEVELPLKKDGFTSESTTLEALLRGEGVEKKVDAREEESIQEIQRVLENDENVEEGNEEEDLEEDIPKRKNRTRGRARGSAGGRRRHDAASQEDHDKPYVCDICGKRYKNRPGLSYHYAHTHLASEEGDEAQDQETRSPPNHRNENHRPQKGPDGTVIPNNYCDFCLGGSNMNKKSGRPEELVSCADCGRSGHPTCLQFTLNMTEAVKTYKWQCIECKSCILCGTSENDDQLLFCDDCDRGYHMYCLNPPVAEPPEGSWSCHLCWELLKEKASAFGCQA
UniProt Q8NHG8: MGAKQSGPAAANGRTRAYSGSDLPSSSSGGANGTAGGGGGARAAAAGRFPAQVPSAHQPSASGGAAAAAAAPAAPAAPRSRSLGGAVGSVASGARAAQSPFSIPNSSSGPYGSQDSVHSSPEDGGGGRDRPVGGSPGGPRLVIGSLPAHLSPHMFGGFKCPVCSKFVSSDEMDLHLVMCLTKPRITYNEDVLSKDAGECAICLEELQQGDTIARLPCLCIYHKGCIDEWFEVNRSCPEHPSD
UniProt Q8TD30: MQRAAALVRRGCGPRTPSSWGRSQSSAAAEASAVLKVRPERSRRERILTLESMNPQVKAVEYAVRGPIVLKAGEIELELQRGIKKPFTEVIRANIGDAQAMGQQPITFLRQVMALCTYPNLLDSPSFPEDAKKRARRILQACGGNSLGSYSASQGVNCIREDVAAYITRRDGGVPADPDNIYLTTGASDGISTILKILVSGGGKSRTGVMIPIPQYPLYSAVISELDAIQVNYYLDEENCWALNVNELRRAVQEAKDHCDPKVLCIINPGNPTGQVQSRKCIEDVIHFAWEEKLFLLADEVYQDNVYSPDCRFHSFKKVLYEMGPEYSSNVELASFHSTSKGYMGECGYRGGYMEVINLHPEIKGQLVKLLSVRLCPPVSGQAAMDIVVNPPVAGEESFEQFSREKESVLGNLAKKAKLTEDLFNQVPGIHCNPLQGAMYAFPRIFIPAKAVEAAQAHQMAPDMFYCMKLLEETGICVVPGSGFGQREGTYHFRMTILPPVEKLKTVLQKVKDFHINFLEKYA
UniProt Q92696: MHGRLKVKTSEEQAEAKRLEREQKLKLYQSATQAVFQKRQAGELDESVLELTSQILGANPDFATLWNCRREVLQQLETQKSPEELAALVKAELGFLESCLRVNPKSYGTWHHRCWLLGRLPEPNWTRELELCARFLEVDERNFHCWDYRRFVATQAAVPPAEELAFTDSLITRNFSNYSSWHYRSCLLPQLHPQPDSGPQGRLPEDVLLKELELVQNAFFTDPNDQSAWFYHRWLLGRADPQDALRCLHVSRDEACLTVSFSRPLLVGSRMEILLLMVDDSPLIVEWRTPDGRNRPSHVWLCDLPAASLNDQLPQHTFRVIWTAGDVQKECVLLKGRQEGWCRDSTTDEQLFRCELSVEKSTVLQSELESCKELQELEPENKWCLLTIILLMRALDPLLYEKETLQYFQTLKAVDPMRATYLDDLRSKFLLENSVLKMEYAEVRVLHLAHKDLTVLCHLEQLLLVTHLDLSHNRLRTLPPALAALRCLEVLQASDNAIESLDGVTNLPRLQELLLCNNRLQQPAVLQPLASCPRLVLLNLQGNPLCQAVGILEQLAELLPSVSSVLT
UniProt Q8NHP8: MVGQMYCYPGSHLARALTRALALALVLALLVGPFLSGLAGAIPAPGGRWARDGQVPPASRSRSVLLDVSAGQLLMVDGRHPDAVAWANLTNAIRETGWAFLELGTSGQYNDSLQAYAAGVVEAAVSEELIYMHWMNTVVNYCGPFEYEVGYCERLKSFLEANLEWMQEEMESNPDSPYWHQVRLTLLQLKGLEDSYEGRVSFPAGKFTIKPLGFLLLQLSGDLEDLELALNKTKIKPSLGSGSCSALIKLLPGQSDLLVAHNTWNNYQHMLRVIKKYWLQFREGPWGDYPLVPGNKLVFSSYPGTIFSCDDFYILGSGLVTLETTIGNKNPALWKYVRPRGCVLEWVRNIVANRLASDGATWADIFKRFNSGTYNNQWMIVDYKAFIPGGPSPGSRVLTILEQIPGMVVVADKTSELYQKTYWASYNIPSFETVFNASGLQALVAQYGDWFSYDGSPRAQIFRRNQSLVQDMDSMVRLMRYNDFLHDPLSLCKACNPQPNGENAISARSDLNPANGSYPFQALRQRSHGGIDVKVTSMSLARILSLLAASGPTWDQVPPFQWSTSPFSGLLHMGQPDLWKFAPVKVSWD
UniProt Q8TEQ0: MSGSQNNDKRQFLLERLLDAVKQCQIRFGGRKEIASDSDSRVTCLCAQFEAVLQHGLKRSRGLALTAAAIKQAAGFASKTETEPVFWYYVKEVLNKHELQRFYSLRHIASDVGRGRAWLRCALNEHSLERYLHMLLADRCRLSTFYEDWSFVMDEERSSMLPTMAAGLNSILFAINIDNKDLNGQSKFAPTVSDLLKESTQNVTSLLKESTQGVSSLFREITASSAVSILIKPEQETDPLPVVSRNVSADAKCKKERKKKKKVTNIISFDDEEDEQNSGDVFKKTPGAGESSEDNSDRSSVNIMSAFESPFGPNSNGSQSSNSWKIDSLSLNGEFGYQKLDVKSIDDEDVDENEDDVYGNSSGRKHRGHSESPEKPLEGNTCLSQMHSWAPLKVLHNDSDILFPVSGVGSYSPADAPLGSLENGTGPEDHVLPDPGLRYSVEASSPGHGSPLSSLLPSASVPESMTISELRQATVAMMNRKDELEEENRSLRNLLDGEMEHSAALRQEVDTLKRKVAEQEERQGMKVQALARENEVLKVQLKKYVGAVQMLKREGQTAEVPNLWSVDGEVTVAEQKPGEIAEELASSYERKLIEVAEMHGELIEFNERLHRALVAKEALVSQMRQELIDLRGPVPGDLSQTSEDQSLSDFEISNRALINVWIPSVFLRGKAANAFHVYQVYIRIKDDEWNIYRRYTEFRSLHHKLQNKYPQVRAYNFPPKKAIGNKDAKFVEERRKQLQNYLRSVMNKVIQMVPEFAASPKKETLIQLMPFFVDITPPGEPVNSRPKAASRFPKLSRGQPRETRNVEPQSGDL
UniProt Q8WY91: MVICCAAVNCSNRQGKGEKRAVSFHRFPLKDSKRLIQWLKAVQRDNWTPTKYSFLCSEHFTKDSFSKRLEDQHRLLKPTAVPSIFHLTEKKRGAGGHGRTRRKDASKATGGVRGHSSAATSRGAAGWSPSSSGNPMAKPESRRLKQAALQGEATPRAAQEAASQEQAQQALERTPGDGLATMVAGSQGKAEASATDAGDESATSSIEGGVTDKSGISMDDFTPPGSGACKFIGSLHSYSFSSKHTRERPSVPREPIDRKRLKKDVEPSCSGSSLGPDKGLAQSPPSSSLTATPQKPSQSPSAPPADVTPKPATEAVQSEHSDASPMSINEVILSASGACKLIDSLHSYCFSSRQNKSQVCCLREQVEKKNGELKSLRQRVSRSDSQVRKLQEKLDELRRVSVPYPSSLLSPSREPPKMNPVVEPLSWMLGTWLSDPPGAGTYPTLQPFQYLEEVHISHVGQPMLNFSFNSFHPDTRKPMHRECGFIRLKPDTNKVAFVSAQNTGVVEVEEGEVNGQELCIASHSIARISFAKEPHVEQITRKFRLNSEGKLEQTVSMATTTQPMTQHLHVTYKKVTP
UniProt Q8TAD8: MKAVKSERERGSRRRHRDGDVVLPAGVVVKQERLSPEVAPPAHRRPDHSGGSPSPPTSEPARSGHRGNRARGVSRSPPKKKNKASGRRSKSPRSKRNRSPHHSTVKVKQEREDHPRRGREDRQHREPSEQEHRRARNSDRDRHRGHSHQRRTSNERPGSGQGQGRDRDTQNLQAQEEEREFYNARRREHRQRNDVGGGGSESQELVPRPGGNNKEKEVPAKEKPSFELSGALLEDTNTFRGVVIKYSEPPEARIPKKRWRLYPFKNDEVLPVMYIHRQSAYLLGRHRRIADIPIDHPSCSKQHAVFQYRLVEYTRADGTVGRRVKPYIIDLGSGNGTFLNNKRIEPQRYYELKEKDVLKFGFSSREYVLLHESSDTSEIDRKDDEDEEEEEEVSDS
UniProt Q8ND24: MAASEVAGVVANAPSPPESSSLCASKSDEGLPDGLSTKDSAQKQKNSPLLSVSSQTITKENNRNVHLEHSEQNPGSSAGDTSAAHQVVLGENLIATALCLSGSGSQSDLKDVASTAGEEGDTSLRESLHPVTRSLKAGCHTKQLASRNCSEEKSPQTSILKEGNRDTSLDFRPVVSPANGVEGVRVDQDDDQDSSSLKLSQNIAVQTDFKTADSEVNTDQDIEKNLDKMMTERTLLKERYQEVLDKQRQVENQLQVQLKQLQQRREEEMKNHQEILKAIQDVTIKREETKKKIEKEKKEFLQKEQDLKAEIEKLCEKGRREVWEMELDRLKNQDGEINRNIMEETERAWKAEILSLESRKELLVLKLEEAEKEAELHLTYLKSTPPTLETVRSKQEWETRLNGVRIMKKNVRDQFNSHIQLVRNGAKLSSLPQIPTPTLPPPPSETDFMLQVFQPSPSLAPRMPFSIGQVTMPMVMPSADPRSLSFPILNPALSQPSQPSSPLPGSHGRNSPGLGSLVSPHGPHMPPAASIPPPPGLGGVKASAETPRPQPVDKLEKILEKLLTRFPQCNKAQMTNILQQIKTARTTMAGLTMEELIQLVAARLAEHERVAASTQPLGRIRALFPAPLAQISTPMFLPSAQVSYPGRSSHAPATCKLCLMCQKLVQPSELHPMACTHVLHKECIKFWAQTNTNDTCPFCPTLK
UniProt Q8WXE0: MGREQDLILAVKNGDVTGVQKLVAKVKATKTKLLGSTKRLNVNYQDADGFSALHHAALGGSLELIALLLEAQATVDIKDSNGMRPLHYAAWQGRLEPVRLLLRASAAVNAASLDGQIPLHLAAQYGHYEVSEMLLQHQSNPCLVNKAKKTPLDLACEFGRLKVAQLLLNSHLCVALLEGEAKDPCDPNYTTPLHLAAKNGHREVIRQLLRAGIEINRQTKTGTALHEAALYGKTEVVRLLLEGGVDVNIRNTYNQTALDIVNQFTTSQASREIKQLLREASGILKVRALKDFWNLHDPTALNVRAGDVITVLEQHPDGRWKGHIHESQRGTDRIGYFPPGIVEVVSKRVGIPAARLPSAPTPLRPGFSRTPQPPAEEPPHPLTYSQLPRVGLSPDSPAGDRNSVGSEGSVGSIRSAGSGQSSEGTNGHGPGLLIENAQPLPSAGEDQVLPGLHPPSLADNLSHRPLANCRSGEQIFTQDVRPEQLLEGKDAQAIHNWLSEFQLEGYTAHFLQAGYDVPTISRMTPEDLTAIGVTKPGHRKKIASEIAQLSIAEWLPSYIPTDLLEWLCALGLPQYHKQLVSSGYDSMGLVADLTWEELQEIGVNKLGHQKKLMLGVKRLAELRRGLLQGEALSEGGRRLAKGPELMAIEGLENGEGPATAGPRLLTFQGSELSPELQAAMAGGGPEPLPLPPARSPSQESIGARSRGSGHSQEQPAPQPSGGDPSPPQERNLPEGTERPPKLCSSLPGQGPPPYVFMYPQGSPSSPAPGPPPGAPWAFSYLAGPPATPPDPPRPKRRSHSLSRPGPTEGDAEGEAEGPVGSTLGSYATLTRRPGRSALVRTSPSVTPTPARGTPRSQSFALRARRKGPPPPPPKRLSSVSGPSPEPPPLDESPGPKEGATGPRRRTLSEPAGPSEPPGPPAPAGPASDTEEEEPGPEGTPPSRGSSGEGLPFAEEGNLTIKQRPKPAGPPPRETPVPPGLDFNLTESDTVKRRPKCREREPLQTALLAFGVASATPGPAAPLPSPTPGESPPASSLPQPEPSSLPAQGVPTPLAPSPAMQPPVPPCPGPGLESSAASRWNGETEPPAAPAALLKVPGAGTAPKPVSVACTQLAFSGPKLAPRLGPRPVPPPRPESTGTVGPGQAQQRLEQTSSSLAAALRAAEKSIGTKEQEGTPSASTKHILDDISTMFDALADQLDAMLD

Compound: Nc1ncnc2c1ncn2[C@@H]1O[C@H](COP(=O)(O)OP(=O)(O)NP(=O)(O)O)[C@@H](O)[C@H]1O [adenylyl imidodiphosphate]
Assay: NP40-soluble protein abundance relative to vehicle (solubility fold change) (ratio); higher = more soluble protein in presence of AMP-PNP
Details: concentration: 8mM
Summary of the method: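 Jurkat crude lysate prepared with a Dounce homogeniser was treated at eight concentrations spanning 0.1 to 10 mM, 10 min at room temperature then 3 min at 37 °C. Solubilisation with 0.8% NP40 and benzonase and ultracentrifugation preceded TMT labelling of the supernatant for LC-MS/MS. Fold change against the detergent-processed vehicle was determined per replicate from vsn-normalised intensities, across three independent experiments.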

Target	NP40-soluble protein abundance
UniProt Q8TCT7 and related entries	1.03 ± 0.047
CORO2A (UniProt Q92828)	1.01 ± 0.019
UniProt Q8NDI1-2|Q8NDI1-3	0.966 ± 0.065
PNPT1 (UniProt Q8TCS8)	0.953 ± 0.021
UniProt Q92734 and related entries	0.965 ± 0.02
ABHD11 (UniProt Q8NFV4)	1 ± 0.02
UniProt Q92619	1.05 ± 0.042
UniProt Q92784 and related entries	1.01 ± 0.012
SRFBP1 (UniProt Q8NEF9)	1.042 ± 0.0097
PDCD6IP (UniProt Q8WUM4)	0.991 ± 0.021
UniProt Q8WZA9	0.981 ± 0.021
UniProt Q92859 and related entries	1 ± 0.015
MOSPD2 (UniProt Q8NHP6)	0.91 ± 0.032
UniProt Q8NDX5 and related entries	1.05 ± 0.018
RNF169 (UniProt Q8NCN4)	1.09 ± 0.056
PIEZO1 (UniProt Q92508)	1.009 ± 0.009
UniProt Q8TCC3 and related entries	1.01 ± 0.11
UniProt Q92538 and related entries	0.899 ± 0.034
UniProt Q8TEB1 and related entries	0.961 ± 0.04
UniProt Q8TF05 and related entries	0.915 ± 0.044

Target	NP40-soluble protein abundance
ZNRF2 (UniProt Q8NHG8)	0.982 ± 0.03
ENGASE (UniProt Q8NFI3)	0.974 ± 0.026
CXorf38 (UniProt Q8TB03)	0.98 ± 0.031
NANP (UniProt Q8TBE9)	1.044 ± 0.0074
GPT2 (UniProt Q8TD30)	0.923 ± 0.015
PPIL4 (UniProt Q8WUA2)	1 ± 0.034
HSD17B8 (UniProt Q92506)	1.04 ± 0.024
RABGGTA (UniProt Q92696)	0.967 ± 0.031
PLBD2 (UniProt Q8NHP8)	0.978 ± 0.043
UniProt Q8TDQ7 and related entries	0.984 ± 0.051
UniProt Q8TEQ0 and related entries	0.969 ± 0.017
UniProt Q92796-3	1.05 ± 0.028
THAP4 (UniProt Q8WY91)	0.97311 ± 0.00095
UniProt Q8ND04 and related entries	1.03 ± 0.052
GTF2H4 (UniProt Q92759)	1.02 ± 0.025
SNIP1 (UniProt Q8TAD8)	1.01 ± 0.032
RNF214 (UniProt Q8ND24)	1.01 ± 0.047
MITD1 (UniProt Q8WV92)	1.113 ± 0.0065
UniProt Q8WXE0 and related entries	0.982 ± 0.025
UniProt Q8WV93	1.08 ± 0.25

An excerpt of these results, as labelled records.
RABGGTA (UniProt Q92696)
  NP40-soluble protein abundance = 0.967 ± 0.031
PLBD2 (UniProt Q8NHP8)
  NP40-soluble protein abundance = 0.978 ± 0.043
